This note sets out measurements from PMC6477152 (2019).

By UniProt entry, the sequences of proteins in these tests, tags left out. Where a name states a change or a piece, a line headed by the entry shows the natural chain unless it says otherwise. Chains listed by the source or under a name are the forms on record and can include a tag or linker. Residues count along the entry.
UniProt Q8TDY2: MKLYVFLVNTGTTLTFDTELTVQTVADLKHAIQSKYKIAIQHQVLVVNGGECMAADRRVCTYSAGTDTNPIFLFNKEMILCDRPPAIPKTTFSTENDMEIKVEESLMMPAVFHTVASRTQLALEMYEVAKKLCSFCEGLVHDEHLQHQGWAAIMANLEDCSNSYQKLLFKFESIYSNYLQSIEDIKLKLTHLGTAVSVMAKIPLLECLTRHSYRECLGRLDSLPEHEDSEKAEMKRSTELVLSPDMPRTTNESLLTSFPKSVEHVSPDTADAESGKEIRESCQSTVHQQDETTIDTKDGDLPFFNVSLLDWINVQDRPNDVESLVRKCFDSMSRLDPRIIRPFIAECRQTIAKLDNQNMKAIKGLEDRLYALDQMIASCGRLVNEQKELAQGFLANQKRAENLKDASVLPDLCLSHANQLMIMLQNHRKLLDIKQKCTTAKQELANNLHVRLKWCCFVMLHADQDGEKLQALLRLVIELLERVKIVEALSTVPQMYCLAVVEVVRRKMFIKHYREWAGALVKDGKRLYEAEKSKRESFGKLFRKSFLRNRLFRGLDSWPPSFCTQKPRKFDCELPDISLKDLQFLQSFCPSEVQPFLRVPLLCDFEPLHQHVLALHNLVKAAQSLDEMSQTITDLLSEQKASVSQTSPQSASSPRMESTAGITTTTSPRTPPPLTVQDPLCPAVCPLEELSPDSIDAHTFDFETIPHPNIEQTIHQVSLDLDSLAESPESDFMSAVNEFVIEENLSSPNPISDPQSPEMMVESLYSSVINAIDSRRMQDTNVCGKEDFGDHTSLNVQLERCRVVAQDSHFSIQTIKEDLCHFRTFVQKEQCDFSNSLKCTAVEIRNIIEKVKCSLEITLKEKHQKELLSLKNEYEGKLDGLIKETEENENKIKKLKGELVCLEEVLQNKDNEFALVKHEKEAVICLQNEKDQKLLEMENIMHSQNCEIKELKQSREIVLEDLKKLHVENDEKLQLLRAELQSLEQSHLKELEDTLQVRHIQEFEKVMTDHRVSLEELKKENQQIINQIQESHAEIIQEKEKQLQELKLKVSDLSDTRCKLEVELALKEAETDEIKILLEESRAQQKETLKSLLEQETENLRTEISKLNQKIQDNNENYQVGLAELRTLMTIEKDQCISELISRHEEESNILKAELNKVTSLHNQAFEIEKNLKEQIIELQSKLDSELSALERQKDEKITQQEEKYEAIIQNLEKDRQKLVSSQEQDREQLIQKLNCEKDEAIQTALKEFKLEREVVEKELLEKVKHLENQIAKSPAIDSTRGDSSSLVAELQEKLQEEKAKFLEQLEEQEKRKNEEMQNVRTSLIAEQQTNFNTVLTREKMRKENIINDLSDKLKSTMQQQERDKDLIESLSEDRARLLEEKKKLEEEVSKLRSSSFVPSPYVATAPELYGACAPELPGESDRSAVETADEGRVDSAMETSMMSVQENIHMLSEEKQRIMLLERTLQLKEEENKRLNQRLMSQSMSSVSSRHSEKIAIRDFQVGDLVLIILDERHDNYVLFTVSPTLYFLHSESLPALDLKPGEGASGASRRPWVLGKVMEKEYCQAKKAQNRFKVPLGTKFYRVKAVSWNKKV
GST-FIP200ΔN1115: residues 1116-1594 of Q8TDY2
FIP200ΔN1441 (purified, tag cleaved): residues 1442-1594 of Q8TDY2
UniProt A7MCY6: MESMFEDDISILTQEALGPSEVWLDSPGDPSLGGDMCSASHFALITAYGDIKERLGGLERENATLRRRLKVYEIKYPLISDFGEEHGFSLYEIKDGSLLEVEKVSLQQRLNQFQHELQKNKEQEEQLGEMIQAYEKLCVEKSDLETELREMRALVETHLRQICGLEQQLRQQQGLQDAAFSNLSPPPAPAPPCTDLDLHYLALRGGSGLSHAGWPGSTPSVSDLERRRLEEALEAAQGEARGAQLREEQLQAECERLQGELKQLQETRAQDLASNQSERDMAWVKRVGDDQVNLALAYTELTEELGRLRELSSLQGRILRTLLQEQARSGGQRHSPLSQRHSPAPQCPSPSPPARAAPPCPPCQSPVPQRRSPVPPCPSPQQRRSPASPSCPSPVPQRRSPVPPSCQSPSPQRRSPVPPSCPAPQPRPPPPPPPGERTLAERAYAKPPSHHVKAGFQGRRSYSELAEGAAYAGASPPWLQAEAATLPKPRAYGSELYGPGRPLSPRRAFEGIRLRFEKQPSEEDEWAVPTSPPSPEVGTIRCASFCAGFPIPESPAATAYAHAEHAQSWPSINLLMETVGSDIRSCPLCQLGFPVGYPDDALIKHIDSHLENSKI

Changes are numbered by the printed parent chain. These are yes or no findings as the source states them, for the method shown. For part of these data: Binding seen in cells or lysates may run through a third protein. Some binding calls cover weakened binding; strength is not graded here. For part of these data: Where a sequence is shown, tags or fusion partners need not be part of it.

For experiment [1], the target named is T1, NDP52 (yeast two-hybrid bait; also found as prey clones) (human) (UniProt Q13137).
T1 sequence: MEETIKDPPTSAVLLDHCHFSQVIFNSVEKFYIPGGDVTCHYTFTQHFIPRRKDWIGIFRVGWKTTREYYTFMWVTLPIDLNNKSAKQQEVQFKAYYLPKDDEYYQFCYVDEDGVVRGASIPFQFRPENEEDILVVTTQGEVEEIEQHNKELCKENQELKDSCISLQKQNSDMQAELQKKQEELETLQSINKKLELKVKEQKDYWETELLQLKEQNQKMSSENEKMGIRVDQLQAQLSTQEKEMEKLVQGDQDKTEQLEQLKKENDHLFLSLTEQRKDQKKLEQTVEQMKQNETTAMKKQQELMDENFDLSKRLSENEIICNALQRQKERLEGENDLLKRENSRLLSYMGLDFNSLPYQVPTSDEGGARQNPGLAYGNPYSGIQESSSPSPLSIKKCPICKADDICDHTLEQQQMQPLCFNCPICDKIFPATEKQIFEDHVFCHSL
Kind of experiment: two-hybrid; yeast two-hybrid screen with NDP52 as bait, ProQuest Two-Hybrid System; 42 clones analyzed.

The target of experiment [2] is FIP200ΔN1441 (purified, tag cleaved) (human) (UniProt Q8TDY2). Kind of experiment: HDX-MS; 5 μM FIP200ΔN1441 alone or with 10 μM NDP52 aa20-127 and 10 μM SINTBAD aa6-85 together, 1 h at 23°C, 20 mM Tris pH 7.5, 150 mM NaCl, 1 mM DTT; exchange 0.3, 3 and 30 s; both purified.
Experiment [3] deals with T2, Luciferase-NDP52 A119Q (human) (UniProt Q13137).
T2 sequence: T1 sequence with A119Q
Description: pull-down; same experiment as a5; pair of the titrated fragment in bacterial lysate with Luciferase:NDP52, read as luciferase brought to GST-FIP200ΔN1115 beads (bell-shaped curves).

For another experiment, the target named is T3, Luciferase:NDP52 (human) (UniProt Q13137).
T3 sequence: T1 sequence
The description is as above.

Experiment [4] deals with GST-FIP200ΔN1115 (human) (UniProt Q8TDY2). Description: pull-down; GST-based LUMIER with GST-FIP200ΔN1115 and Luciferase:NDP52 in the presence of titrated amounts of bacterial lysates containing SINTBADaa5-85 or NAP1aa5-75; pairs with the GST bait; only the target purified.
Experiment [5] has as its target FLAG-SINTBAD (HeLa) (human) (UniProt A7MCY6). Description: co-IP; FLAG-tagged constructs expressed in HeLa cells, immunoprecipitated, endogenous FIP200 detected.
In experiment [6] the target is GST-FIP200ΔN1115 (human) (UniProt Q8TDY2). Kind of experiment: pull-down; GST-based LUMIER: GST fusion from E. coli immobilised on glutathione 4b Sepharose beads, incubated with lysate of transfected HEK293ET cells expressing the Renilla luciferase-tagged protein, 2 h at 4°C, four washes, eluted with 20 mM glutathione, luciferase activity as fold binding against GST only; only the target purified.

The target in experiment [7] is T4, NDP52 (yeast two-hybrid bait; also found as prey clones) (human), Q13137.
T4 chain: T1 sequence
Kind of experiment: two-hybrid; yeast two-hybrid screen with NDP52 as bait, ProQuest Two-Hybrid System; 42 clones analyzed. The note with it: remark: other sources report otherwise.

For the molecule “SINTBAD (yeast two-hybrid prey clones) (from UniProt A7MCY6 1-615)”, the binding result in experiment [1] is “binds”. As to “SINTBAD_(aa6-85) (purified, tag cleaved) (from UniProt A7MCY6 6-85) (domain or fragment)”, the binding entry in experiment [2] is recorded as “binds”. In the case of “SINTBADaa5-85 (bacterial lysate) (from UniProt A7MCY6 5-85) (domain or fragment)”, the binding result is “no binding” in experiment [3], “binds” in the experiment with Luciferase:NDP52 (human) and “binds” in the experiment with GST-FIP200ΔN1115 (human) [4].

Take “endogenous full-length FIP200 (from UniProt Q8TDY2 1-1594)”: the binding result in experiment [5] is on record as “binds”.

B1: Luciferase-tagged TANK (protein, UniProt Q92844 1-425)
chain: MDKNIGEQLNKAYEAFRQACMDRDSAVKELQQKTENYEQRIREQQEQLSLQQTIIDKLKSQLLLVNSTQDNNYGCVPLLEDSETRKNNLTLDQPQDKVISGIAREKLPKVRRQEVSSPRKETSARSLGSPLLHERGNIEKTFWDLKEEFHKICMLAKAQKDHLSKLNIPDTATETQCSVPIQCTDKTDKQEALFKPQAKDDINRGAPSITSVTPRGLCRDEEDTSFESLSKFNVKFPPMDNDSTFLHSTPERPGILSPATSEAVCQEKFNMEFRDNPGNFVKTEETLFEIQGIDPIASAIQNLKTTDKTKPSNLVNTCIRTTLDRAACLPPGDHNALYVNSFPLLDPSDAPFPSLDSPGKAIRGPQQPIWKPFPNQDSDSVVLSGTDSELHIPRVCEFCQAVFPPSITSRGDFLRHLNSHFNGET
For the molecule B1, the binding entry with GST-FIP200ΔN1115 (human) [6] is listed as “no binding”.

B2: Luciferase-CALCOCO1 (protein, UniProt Q9P1Z2 1-691)
chain: MEESPLSRAPSRGGVNFLNVARTYIPNTKVECHYTLPPGTMPSASDWIGIFKVEAACVRDYHTFVWSSVPESTTDGSPIHTSVQFQASYLPKPGAQLYQFRYVNRQGQVCGQSPPFQFREPRPMDELVTLEEADGGSDILLVVPKATVLQNQLDESQQERNDLMQLKLQLEGQVTELRSRVQELERALATARQEHTELMEQYKGISRSHGEITEERDILSRQQGDHVARILELEDDIQTISEKVLTKEVELDRLRDTVKALTREQEKLLGQLKEVQADKEQSEAELQVAQQENHHLNLDLKEAKSWQEEQSAQAQRLKDKVAQMKDTLGQAQQRVAELEPLKEQLRGAQELAASSQQKATLLGEELASAAAARDRTIAELHRSRLEVAEVNGRLAELGLHLKEEKCQWSKERAGLLQSVEAEKDKILKLSAEILRLEKAVQEERTQNQVFKTELAREKDSSLVQLSESKRELTELRSALRVLQKEKEQLQEEKQELLEYMRKLEARLEKVADEKWNEDATTEDEEAAVGLSCPAALTDSEDESPEDMRLPPYGLCERGDPGSSPAGPREASPLVVISQPAPISPHLSGPAEDSSSDSEAEDEKSVLMAAVQSGGEEANLLLPELGSAFYDMASGFTVGTLSETSTGGPATPTWKECPICKERFPAESDKDALEDHMDGHFFFSTQDPFTFE
For the molecule B2, the binding entry with GST-FIP200ΔN1115 (human) [6] is reported as “no binding”.

B3: NDP52 (yeast two-hybrid bait; also found as prey clones), Q13137 1-446 (protein)
chain: T1 sequence
As to B3, the binding entry in experiment [7] was “binds”.
